Measurements: PMC10797291
These are yes or no findings as the source states them, for the method shown. In cells and extracts the contact can be indirect. Some results given as binding are weak or reduced against the parent protein; the word gives no strength.

By UniProt entry, the sequences of proteins in these tests, tags left out. Where a name states a change or a piece, a line headed by the entry shows the natural chain unless it says otherwise.
UniProt Q9C0B5: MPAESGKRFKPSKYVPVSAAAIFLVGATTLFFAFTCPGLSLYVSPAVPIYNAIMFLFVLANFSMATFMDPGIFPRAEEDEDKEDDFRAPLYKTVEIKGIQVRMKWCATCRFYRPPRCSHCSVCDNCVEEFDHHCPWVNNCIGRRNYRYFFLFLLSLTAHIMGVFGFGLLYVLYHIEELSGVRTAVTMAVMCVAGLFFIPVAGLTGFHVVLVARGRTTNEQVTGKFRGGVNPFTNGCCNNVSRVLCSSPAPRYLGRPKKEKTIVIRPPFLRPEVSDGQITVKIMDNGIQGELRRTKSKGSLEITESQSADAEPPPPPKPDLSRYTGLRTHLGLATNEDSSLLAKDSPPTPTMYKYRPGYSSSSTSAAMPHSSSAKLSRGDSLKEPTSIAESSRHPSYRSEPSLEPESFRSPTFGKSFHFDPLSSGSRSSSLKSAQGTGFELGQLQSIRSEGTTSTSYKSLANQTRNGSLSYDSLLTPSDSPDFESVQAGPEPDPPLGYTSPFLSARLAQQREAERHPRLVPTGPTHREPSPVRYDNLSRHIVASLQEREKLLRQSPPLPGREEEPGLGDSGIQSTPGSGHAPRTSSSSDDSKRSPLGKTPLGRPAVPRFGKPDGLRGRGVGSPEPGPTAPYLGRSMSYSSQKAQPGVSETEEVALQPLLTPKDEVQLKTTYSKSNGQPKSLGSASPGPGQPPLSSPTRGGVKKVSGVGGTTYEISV
UniProt Q05655: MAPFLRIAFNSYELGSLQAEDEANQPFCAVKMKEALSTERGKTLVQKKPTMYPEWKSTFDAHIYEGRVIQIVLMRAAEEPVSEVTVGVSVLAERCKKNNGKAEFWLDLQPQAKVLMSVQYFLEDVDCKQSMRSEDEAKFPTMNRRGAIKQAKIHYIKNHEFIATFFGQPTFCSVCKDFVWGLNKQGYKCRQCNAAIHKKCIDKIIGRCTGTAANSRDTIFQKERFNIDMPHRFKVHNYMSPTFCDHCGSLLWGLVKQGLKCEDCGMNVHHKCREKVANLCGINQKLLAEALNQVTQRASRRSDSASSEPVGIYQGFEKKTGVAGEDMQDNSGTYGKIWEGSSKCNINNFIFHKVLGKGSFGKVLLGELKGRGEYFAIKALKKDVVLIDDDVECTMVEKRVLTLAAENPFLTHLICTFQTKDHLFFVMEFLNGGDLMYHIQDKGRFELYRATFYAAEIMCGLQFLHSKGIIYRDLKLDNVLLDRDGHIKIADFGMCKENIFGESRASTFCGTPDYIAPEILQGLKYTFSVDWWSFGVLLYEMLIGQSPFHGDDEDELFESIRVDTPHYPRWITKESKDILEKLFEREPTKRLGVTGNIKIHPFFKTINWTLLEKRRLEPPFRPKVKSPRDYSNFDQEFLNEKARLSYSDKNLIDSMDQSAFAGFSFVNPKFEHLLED

Biological target: zinc finger DHHC-type palmitoyltransferase 5 (ZDHHC5), HA-tagged (UniProt Q9C0B5)
Test: co-IP; ZDHHC5-HA precipitated with HA-tag beads overnight at 4 °C from NP-40 lysate of transfected 293T cells; blots for HA, PKCδ and β-actin; cells treated with 2.5 μM ART

binding: binds
Substance: protein kinase Cδ (PKCδ) (from UniProt Q05655 1-676) (enzyme)
